For the experiment, the target named is GFP tagged RTN3 (human (cDNA from HEK293T)) (UniProt O95197). As to the kind of experiment: co-IP.

Sequences of proteins named here, by UniProt entry; tags and fusion partners are left off. A change or cut given only in a name is not applied to a line headed by its entry. A line that says so, or that is headed by a name, gives the form on record, which may keep a tag or linker.
GFP tagged RTN3 (human (cDNA from HEK293T)) (O95197, form named): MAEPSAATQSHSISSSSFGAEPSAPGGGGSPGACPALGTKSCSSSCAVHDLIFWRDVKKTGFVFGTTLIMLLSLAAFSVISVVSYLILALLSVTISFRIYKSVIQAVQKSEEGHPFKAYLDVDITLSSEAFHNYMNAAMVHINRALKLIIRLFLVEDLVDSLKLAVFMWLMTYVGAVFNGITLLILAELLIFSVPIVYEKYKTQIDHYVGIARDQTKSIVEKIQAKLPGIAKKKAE
UniProt Q14258: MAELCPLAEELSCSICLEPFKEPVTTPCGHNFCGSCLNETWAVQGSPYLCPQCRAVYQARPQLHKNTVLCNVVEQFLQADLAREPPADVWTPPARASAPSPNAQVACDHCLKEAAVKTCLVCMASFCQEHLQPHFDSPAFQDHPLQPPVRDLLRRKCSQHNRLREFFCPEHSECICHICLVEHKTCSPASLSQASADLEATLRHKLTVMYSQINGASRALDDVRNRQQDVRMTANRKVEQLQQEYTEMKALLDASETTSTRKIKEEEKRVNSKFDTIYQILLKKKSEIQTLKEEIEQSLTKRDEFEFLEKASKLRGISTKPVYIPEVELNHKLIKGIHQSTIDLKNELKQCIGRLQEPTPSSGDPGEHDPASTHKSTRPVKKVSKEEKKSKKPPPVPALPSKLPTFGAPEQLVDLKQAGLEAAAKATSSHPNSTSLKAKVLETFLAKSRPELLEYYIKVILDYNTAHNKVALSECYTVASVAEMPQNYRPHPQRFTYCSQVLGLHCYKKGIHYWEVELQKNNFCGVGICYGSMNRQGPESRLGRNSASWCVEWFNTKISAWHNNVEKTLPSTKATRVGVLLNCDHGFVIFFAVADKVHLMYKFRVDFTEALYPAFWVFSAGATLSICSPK

No constants are given. Whether binding was seen depends on the method and setting. Binding seen in cells or lysates may run through a third protein. Some results given as binding are weak or reduced against the parent protein; the word gives no strength.

Take “Flag-tagged TRIM25 (from UniProt Q14258 1-630)”: the binding result is “binds”.
